Out of some 360,000 compounds screened, about 10,000 (2.8%) were called active. The shares of active, inactive and inconclusive entries below differ from those in the screen. Calls follow the shape of the dose curve; as a rule, active = well fitted inhibition curve with a large enough effect; inconclusive = small, poorly fitted or top-dose-only effect; inactive = flat fitted curve, though single readings scatter. Where the call is inconclusive, the potency comes from a doubtful curve fit.
Target: Serine/threonine-protein kinase PLK1 (Homo sapiens) (UniProt P53350)
Experiment: qHTS for Inhibitors of PLK1-PDB (polo-like kinase 1 - polo-box domain): Primary Screen; also: nearly all actives have a fitted effect of over 65% in size; as to max response, negative = inhibition: series mostly up to about 57 µM
Conditions: Plk1 PBD binding of FITC phosphopeptide, fluorescence polarization
% is scaled to controls: 0 for no effect and ±100 for the full control effect; potency is read from the fitted curve at half-maximal effect.

Chains of the proteins cited; added tags and fusions are not shown.
UniProt P53350, whole entry, looked up: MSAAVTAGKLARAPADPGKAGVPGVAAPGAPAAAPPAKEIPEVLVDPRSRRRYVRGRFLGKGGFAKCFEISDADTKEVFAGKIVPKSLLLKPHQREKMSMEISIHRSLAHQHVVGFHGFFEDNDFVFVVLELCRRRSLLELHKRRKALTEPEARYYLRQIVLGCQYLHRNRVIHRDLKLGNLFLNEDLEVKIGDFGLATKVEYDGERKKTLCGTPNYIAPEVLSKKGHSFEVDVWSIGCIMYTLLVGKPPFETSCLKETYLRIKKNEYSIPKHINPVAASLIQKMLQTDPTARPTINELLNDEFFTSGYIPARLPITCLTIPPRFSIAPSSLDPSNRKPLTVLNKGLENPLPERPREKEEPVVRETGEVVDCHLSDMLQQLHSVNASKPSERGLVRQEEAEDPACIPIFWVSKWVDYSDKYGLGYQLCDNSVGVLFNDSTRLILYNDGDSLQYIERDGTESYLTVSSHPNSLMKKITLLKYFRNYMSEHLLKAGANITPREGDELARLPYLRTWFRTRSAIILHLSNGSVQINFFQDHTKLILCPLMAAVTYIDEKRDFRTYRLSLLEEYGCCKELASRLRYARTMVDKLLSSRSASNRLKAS

| SMILES | Potency | max response, negative = inhibition |
| --- | --- | --- |
| O=C(CCN1C(=O)/C(=C\c2cccc(Br)c2)SC1=S)NCCCN1CCOCC1 | inconclusive: 26.7 µM [inhibitor, partial curve] |  |
| Cc1cccn2c(=O)nc(SCC(=O)N3CCN(c4ccccc4)CC3)nc12 |  | inactive: -12.1% |
| CSc1ncc(Cl)c(C(=O)Nc2nnc(SC/C=C/c3ccccc3)s2)n1 | inconclusive: 26.7 µM [inhibitor, partial curve] |  |
| CCOc1cc(C(=O)NC(=S)Nn2cnnc2)cc(OCC)c1OCC | inconclusive: 29.9 µM [inhibitor, single point] |  |
| Cc1no[n+]([O-])c1COc1ccc(/C=C(\C#N)C(N)=O)cc1 | active: 21.2 µM |  |
| COc1ccc(CC(=O)Nc2ccc(S(=O)(=O)N3CCCCC3)cc2)cc1OC |  | inactive: -17.5% |
| CCOC(=O)c1[nH]c(=S)[nH]c1C | inconclusive: 29.9 µM [inhibitor, partial curve] |  |
| COC(=O)c1cc(-c2ccccc2)sc1N | active: 21.2 µM |  |
| CCCNC(=O)C1(C)CCN(CCC(=O)c2ccc(Br)cc2)C1 (configuration not stated) | active: 10.6 µM |  |
| O=c1[nH]c(CSc2nc(-c3ccccc3)cs2)nc2ccccc12 | inconclusive: 26.7 µM [inhibitor, partial curve] |  |
| Cc1cc2nc(C)c(Cl)c(=O)n2[nH]1 | inconclusive: 29.9 µM [inhibitor, single point] |  |
| S=C(NN=Cc1ccccn1)N(Cc1ccccn1)Cc1ccccn1 |  | inactive: -18.6% |
| COc1ccc(-c2c(N)nnc3c2[nH]c2ccccc23)cc1OC | inconclusive: 21.2 µM [inhibitor, partial curve] |  |
| Cc1ccc2c(c1)NC(=O)C(CC(=O)N(C)Cc1ccccc1)O2 (configuration not stated) | inconclusive: 26.7 µM [inhibitor, single point] |  |
| Cc1cc(C)c2nc(N3CCCN(C(=O)c4ccco4)CC3)c(C#N)cc2c1 | inconclusive: 23.8 µM [inhibitor, partial curve] |  |
| O=C(COC(=O)c1ccc(Cl)nc1)Nc1ccc2ccccc2c1 |  | inactive: -5.59% |
| CC(=O)N1CCC2(CC1)C(C#N)=C(N)Oc1c2sc2nc(C)cc(C)c12 |  | inactive: -7.75% |
| CC(=O)n1cc([C@@H]2C=C(C(=O)Nc3ccccc3)O[C@H](OCc3ccc(CO)cc3)C2)c2ccccc21 |  | inactive: 18% |
| O=C(Cc1ccccc1)N/N=C/c1ccc(-c2ccc([N+](=O)[O-])cc2)o1 | inconclusive: 29.9 µM [inhibitor, partial curve] |  |
| COc1ccc(C(C(=O)NC2CCCC2)N(C(=O)c2snc(C(N)=O)c2N)c2cccc(O)c2)cc1 (configuration not stated) |  | inconclusive: -30.6% [inhibitor] |
| COc1ccc(C(=O)Nc2ccc(-c3nnn(CC(=O)N4CCN(C(=O)c5ccco5)CC4)n3)cc2)cc1 |  | inactive: -4.61% |
| COc1ccc(-c2nnc3ccc(SCC(=O)Nc4nc5ccccc5s4)nn23)cc1OC | inconclusive: 37.7 µM [inhibitor, single point] |  |
| Cc1ccc(Oc2ccc(Cl)cc2N)cc1 | inconclusive: 9.47 µM [inhibitor, partial curve] |  |
| CCOCC(=O)Nc1nc(-c2ccccc2)c(CC)s1 |  | inactive: -14.7% |

| SMILES | Potency | max response, negative = inhibition |
| --- | --- | --- |
| COc1ccc(-c2nn(C)c3sc(C(=O)NCc4ccco4)cc23)cc1OC | active: 26.7 µM |  |
| Cc1ccc(N=C2C(=O)Nc3ccccc32)cc1 |  | inactive: -8.78% |
| COc1cccc(NC(=O)/C=C/c2ccc([N+](=O)[O-])cc2)c1 | inconclusive: 23.8 µM [inhibitor, partial curve] |  |
| O=C(Nc1ccc2oc(-c3ccccc3Cl)nc2c1)c1ncn[nH]1 |  | inactive: -3.06% |
| O=C(CCn1c(=S)oc2ccccc21)NC1CCCCC1 |  | inconclusive: -24.2% [inhibitor] |
| Cc1ccc(N(Cc2cc3ccc(C)cc3[nH]c2=O)C(=O)c2ccco2)c(C)c1 | inconclusive: 26.7 µM [inhibitor, partial curve] |  |
| O=C(O)/C=C/c1ccc(Cn2ccnc2)cc1 | inconclusive: 29.9 µM [inhibitor, partial curve] |  |
| CCc1nnc(NS(=O)(=O)c2ccc(NCc3cc(Cl)cc(Cl)c3O)cc2)s1 | inconclusive: 37.7 µM [inhibitor, single point] |  |
| O=C(Nc1nnc(SCCC2OCCO2)s1)C1CC(=O)N(c2ccc(F)cc2)C1 (configuration not stated) | inconclusive: 29.9 µM [inhibitor, single point] |  |
| Cc1sc(N(C(=O)CCc2ccccc2)c2ccc(C(=O)O)cc2)nc1-c1ccccc1 | inconclusive: 21.2 µM [inhibitor, single point] |  |
| CCc1cc(-c2cnnn2Cc2ccc3ccccc3c2)ccc1-c1cn(CC(C)C)nn1 |  | inactive: -2.46% |
| CCCn1c(SCC(=O)N2CC(=O)Nc3ccccc32)nc2ccccc21 | inconclusive: 16.8 µM [inhibitor, partial curve] |  |
| C=COCCNC(=S)Nc1ccccc1 | inconclusive: 21.2 µM [inhibitor, partial curve] |  |
| CCC1CCc2c(sc(NC(=O)c3cnccn3)c2C(N)=O)C1 (configuration not stated) | active: 2.99 µM |  |
| CC1=NOC(=O)/C1=C\c1ccccc1 | active: 16.8 µM |  |
| O=C(NC(=S)Nc1ccc(-c2ccc(CO)o2)cc1)c1cccs1 | inconclusive: 26.7 µM [inhibitor, single point] |  |
| Cc1ccc(S(=O)(=O)/N=C(\c2ccccc2)N(C)S(=O)(=O)c2ccccc2)cc1 |  | inconclusive: -32.7% [inhibitor] |
| O=C(/C=C/c1cccc2ccccc12)c1ccncc1 | inconclusive: 29.9 µM [inhibitor, partial curve] |  |
| CN(C1=C(NC(=O)c2ccccc2)C(=O)c2ccccc2C1=O)C1CCS(=O)(=O)C1 (configuration not stated) | inconclusive: 9.47 µM [inhibitor, partial curve] |  |
| COC(=O)Cc1c(CSc2ccccc2)oc2ccc(O)c(CN(C)C)c12 | inconclusive: 26.7 µM [inhibitor, partial curve] |  |
| Cc1cc(C)cc(Oc2c(C(F)(F)F)oc3cc(OCC(=O)O)ccc3c2=O)c1 |  | inconclusive: -34% [inhibitor] |
| Cc1nc(NC(=O)c2ccccc2)sc1C1(C)CC(c2ccccc2F)=NO1 (configuration not stated) |  | inconclusive: -31.3% [inhibitor] |
| Cc1ccccc1NC(=O)CSc1ccc(-c2cccnc2)nn1 |  | inactive: -2.79% |
| Cc1cccc(OCC(O)CN2C(C)(C)CC(O)CC2(C)C)c1 (configuration not stated) | active: 9.47 µM |  |

Of the compounds above, six contain an NH in an aromatic ring.

| SMILES | Potency | max response, negative = inhibition |
| --- | --- | --- |
| CCOC(=O)c1[nH]c(=S)[nH]c1C | inconclusive: 29.9 µM [inhibitor, partial curve] |  |
| O=c1[nH]c(CSc2nc(-c3ccccc3)cs2)nc2ccccc12 | inconclusive: 26.7 µM [inhibitor, partial curve] |  |
| Cc1cc2nc(C)c(Cl)c(=O)n2[nH]1 | inconclusive: 29.9 µM [inhibitor, single point] |  |
| COc1ccc(-c2c(N)nnc3c2[nH]c2ccccc23)cc1OC | inconclusive: 21.2 µM [inhibitor, partial curve] |  |
| O=C(Nc1ccc2oc(-c3ccccc3Cl)nc2c1)c1ncn[nH]1 |  | inactive: -3.06% |
| Cc1ccc(N(Cc2cc3ccc(C)cc3[nH]c2=O)C(=O)c2ccco2)c(C)c1 | inconclusive: 26.7 µM [inhibitor, partial curve] |  |

Carrying on.

| SMILES | Potency | max response, negative = inhibition |
| --- | --- | --- |
| Cc1ccc(S(=O)(=O)N2[C@@H](c3ccccc3F)C(C(=O)O)=CC[C@H]2c2ccc(C(C)C)cc2)cc1 | inconclusive: 23.8 µM [inhibitor, single point] |  |
| Cc1cc(C)nc(Oc2ccc(Br)cc2Br)n1 | inconclusive: 16.8 µM [inhibitor, partial curve] |  |
| COc1ccccc1NC(=O)CC(=O)CSc1nnc(-c2ccc(C)cc2)n1-c1ccccc1 |  | inactive: -0.23% |
| CN1CCCc2cc(C=O)ccc21 | inconclusive: 33.6 µM [inhibitor, single point] |  |
| O=C(N/N=C/c1cccc([N+](=O)[O-])c1)c1cccc(Br)c1 | active: 29.9 µM |  |
| COc1ccc(CC2(C)OC(c3ccc(C)c([N+](=O)[O-])c3)=NN2C(C)=O)cc1 (configuration not stated) | inconclusive: 29.9 µM [inhibitor, single point] |  |
| COc1ccc(CCNc2ncnc3sc(C)cc23)cc1OC | inconclusive: 26.7 µM [inhibitor, single point] |  |
| Cc1cccc(-c2nc(=S)c3c(n2Cc2ccco2)CCCC3)c1 | inconclusive: 21.2 µM [inhibitor, partial curve] |  |
| COc1ccc(-c2nnc3sc(C(C)N4C(=O)c5ccccc5C4=O)nn23)cc1 (configuration not stated) | active: 23.8 µM |  |
| Cc1ccc(S(=O)(=O)c2nc(S(C)(=O)=O)sc2N2CCC(C)CC2)cc1 | inconclusive: 15 µM [inhibitor, partial curve, poor fit] |  |
| COc1ccc(N2CC(C(=O)Nc3nnc(C4CCCCC4)s3)CC2=O)cc1 (configuration not stated) | active: 29.9 µM |  |
| CSc1nc2ccc(NC(=O)c3ccc(F)c(F)c3)cc2s1 |  | inactive: -2.79% |
| Cc1ccccc1N1CC(C(=O)Nc2ccc(S(=O)(=O)NCC3CCCO3)cc2)CC1=O (configuration not stated) | inconclusive: 37.7 µM [inhibitor, single point] |  |
| COc1ccc(N2CCN(C(=O)Cc3csc(NC(=O)Nc4ccccc4OC)n3)CC2)cc1 |  | inactive: -1.86% |
| COc1cccc(C(=O)Nc2cccc(C(=O)NC3=NN(c4c(Cl)cc(Cl)cc4Cl)C(=O)C3)c2)c1 | inconclusive: 29.9 µM [inhibitor, partial curve] |  |
| O=C(O)Cc1ccc(-n2cccc2)cc1 | inconclusive: 29.9 µM [inhibitor, partial curve] |  |
| CCCN1CCC(NC(=O)Nc2ccc(Br)cc2)CC1 |  | inactive: -3.99% |
| Cc1ccc(C2Nc3cccc4cccc(c34)N2)s1 | inconclusive: 23.8 µM [inhibitor, single point] |  |
| O=C(NCCN1CCOCC1)c1ccc2c(c1)N(Cc1c(F)cccc1Cl)C(=O)c1ccccc1S2 |  | inactive: -16.3% |
| O=C1CC(NC2CCN(C(=O)c3cccc(F)c3)CC2)C(=O)N1 (configuration not stated) |  | inactive: -0.0568% |
| CC1CCN(S(=O)(=O)c2ccc3c(c2)N(C)C(=O)CC(=O)N3C)CC1 | active: 13.4 µM |  |
| COC(=O)/C=C/C(=O)Nc1cccnc1 |  | inactive: -13.9% |
| CC(C)(C)c1csc(NNC(=O)c2ccc(Cl)cc2)n1 | inconclusive: 10.6 µM [inhibitor, partial curve] |  |
| Cn1nnc(NC(=S)NC(=O)/C=C/c2ccco2)n1 | inconclusive: 26.7 µM [inhibitor, partial curve] |  |
